# Results deposited as PubChem BioAssay AID686943 (Drosophila RNAi Screening Center, 2013).
# Aim: 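Search across the genome for regulators of signalling from receptor tyrosine kinase to ERK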 (primary screen)
# System: Drosophila S2R+ haemocyte-like cells expressing YFP-tagged ERK (Rolled)
# Knock-down reagent: long dsRNA against Drosophila genes
# Conditions: insulin stimulation versus unstimulated cells; dose and duration not given
# Measurement: 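Antibody staining for doubly phosphorylated ERK divided by ERK-YFP signal, as plate z-scores, in insulin-treated and untreated cells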
# Direction: replicate 1, z-score of dpERK with insulin and replicate 2, z-score of dpERK with insulin: higher = more active ERK per ERK-YFP after insulin
# The deposit covers about 23,000 reagents; shown is an unselected part of those with a known target gene and a result. 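Extra replicates exist only for a retested subset of genes; insulin dose and duration not given; both raised and lowered dpERK matter.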 Names joined by + are all predicted targets of the reagent. Further read-outs or replicates are left out here. Not stated in the record: the amount of reagent, the time to read-out.
Gene,DRSC id,"replicate 1, z-score of dpERK with insulin","replicate 2, z-score of dpERK with insulin"
Trxr2 (GeneID 40475),DRSC11900,0.28,0.63
CheB38a (GeneID 2768934),DRSC03205,-1.79,-1.95
mge (GeneID 38459),DRSC08721,0.31,0.48
CG11089 + CG31381,DRSC13690,0.63,0.03
CG11089 + CG31381,DRSC14290,-0.2,0.67
CG7006 (GeneID 42963),DRSC16169,-0.7,-1.04
mRpS30 (GeneID 32530),DRSC20107,0.55,-0.26
CG15712 (GeneID 36843),DRSC06583,1.48,0.15
CG30411 (GeneID 246600),DRSC04004,0.7,0.08
CG42233 (GeneID 43754),DRSC14328,-0.16,-0.09
CG42233 (GeneID 43754),DRSC15416,-0.83,0
VhaAC39-2 (GeneID 42739),DRSC15609,0.4,0.11
CG42374 + Mettl5,DRSC11085,-0.46,-0.51
C15 (GeneID 42544),DRSC13495,-0.58,-0.26
C15 (GeneID 42544),DRSC14169,-0.45,-0.01
wdp (GeneID 37548),DRSC04367,0,-0.29
MED23 + CG3700,DRSC04406,-0.17,-0.2
MED23 + CG3700,DRSC04407,-0.08,1.16
CG7483 (GeneID 40987),DRSC16249,0.4,-0.01
CG7483 (GeneID 40987),DRSC22432,-0.32,-0.2
CG30487 (GeneID 246646),DRSC05377,1.57,0.86
CG4744 (GeneID 36485),DRSC06887,0.49,-0.05
tai (GeneID 34242),DRSC02207,-1.57,-3.17
tai (GeneID 34242),DRSC02673,0.01,0.04
Nufip (GeneID 40043),DRSC10397,-0.05,-0.45
MCTS1 (GeneID 31536),DRSC18393,-0.32,0.35
Dh44-R1 (GeneID 36601),DRSC07172,-0.59,0.32
spag (GeneID 43958),DRSC04717,-0.27,0.58
CG6415 (GeneID 34474),DRSC02954,0.9,0.74
lncRNA:CR41443 (GeneID 12798069),DRSC07733,0.44,0.28
CG43666 + CG43667 + CG43668,DRSC03829,-0.41,1.37
CG43666 + CG43667 + CG43668,DRSC04233,-0.7,-0.35
Cp38 (GeneID 31788),DRSC18453,1.17,0.57
snky (GeneID 39492),DRSC09838,0.17,0.81

Look-ups from the list.
Under “replicate 2, z-score of dpERK with insulin”, MED23 + CG3700 [DRSC04407] is entered as 1.16
Result for tai (GeneID 34242) [DRSC02207] under “replicate 2, z-score of dpERK with insulin”: -3.17
CG30411 (GeneID 246600) [DRSC04004], replicate 1, z-score of dpERK with insulin: 0.7

More entries follow:
Gene,DRSC id,"replicate 1, z-score of dpERK with insulin","replicate 2, z-score of dpERK with insulin"
Polr3C (GeneID 41542),DRSC14490,1.66,0.03
Ssk (GeneID 40207),DRSC10756,0.7,1.4
CG33722 + CG18749,DRSC12674,-0.06,0.79
CG33722 + CG18749,DRSC15386,0.41,-1.15
dsx-c73A (GeneID 39831),DRSC09435,-0.02,0.23
dsx-c73A (GeneID 39831),DRSC09914,0.59,0.29
dsx-c73A (GeneID 39831),DRSC10429,0.83,0.56
Rbp1 (GeneID 41294),DRSC16817,0.38,0.55
Rnf11 (GeneID 318246),DRSC21574,0.05,-0.76
lectin-37Db (GeneID 3346221),DRSC03279,-0.22,0.96
CG8195 (GeneID 36725),DRSC07103,-0.04,0.66
ND-39 (GeneID 40272),DRSC11791,0.04,0.01
CG4956 (GeneID 43114),DRSC15683,0.25,-0.15
PIG-X (GeneID 246580),DRSC22721,0.05,0.02
CG14556 (GeneID 43176),DRSC14899,1.02,0
mthl12 (GeneID 261599),DRSC12964,-0.78,0.21
CG13970 (GeneID 2768911),DRSC02311,0.22,0.62
asRNA:CR42743 + CG34162,DRSC01190,0.79,0.19
CG9616 (GeneID 41731),DRSC16518,-0.29,-1.64
Klp67A (GeneID 39068),DRSC11205,0.03,-0.3
CG3702 (GeneID 33628),DRSC00628,-0.11,-0.41
dlg1 (GeneID 32083),DRSC18895,-4.24,-3.56
dlg1 (GeneID 32083),DRSC18896,0.22,-0.01
dlg1 (GeneID 32083),DRSC19767,-0.29,-0.22
dlg1 (GeneID 32083),DRSC20324,0.89,0.93
